{"source": "PubChem BioAssay AID652243 (Drosophila RNAi Screening Center, 2013)", "screen": "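Fly regulators of androgen-dependent reporter output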 (primary screen)", "cell system": "Drosophila S2R+ cells", "reagents": "long dsRNA against Drosophila genes", "time to read-out": "72 h (48 h, then 24 h hormone)", "challenge": "synthetic androgen R1881 at 10 nM for 24 h", "read-out": "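Firefly light from an androgen-responsive reporter and Renilla control light per well, raw and unnormalised, for each of two replicates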", "scale": "firefly reporter light: higher = more light from androgen-responsive reporter; Renilla control light: higher = more constitutive control signal (cell number, transfection)", "rule for the call": "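Across duplicate plates, a knock-down whose log firefly/Renilla ratio shifted a set fold down or up from the GFP/LacZ control mean was a hit; the downward cut appears as both 1.5 and 3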", "calls": "active = hit: reporter lowered or raised; inactive = no hit", "note": "In all, the deposit lists about 24,000 reagents; shown is an unselected part of those with a known target gene and a result. In the full data, 246 (1%) were called active. 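Plates not normalised; calls are printed but the firefly/Renilla ratio behind them is not deposited; fold cut for lowering reported inconsistently.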 Raw values vary from plate to plate and are shown uncorrected. Not given: the amount of reagent."}
{"target":"CG13036 (retired record) (GeneID 39823)","DRSC id":"DRSC09916","firefly reporter light, replicate 1":2.86e5,"firefly reporter light, replicate 2":3.13e5,"Renilla control light, replicate 1":3.10e6,"Renilla control light, replicate 2":2.44e6,"Outcome":"inactive"}
{"target":"Edg78E (GeneID 40354)","DRSC id":"DRSC11863","firefly reporter light, replicate 1":2.60e5,"firefly reporter light, replicate 2":1.88e5,"Renilla control light, replicate 1":2.96e6,"Renilla control light, replicate 2":2.66e6,"Outcome":"inactive"}
{"target":"Edg78E (GeneID 40354)","DRSC id":"DRSC26712","firefly reporter light, replicate 1":2.24e5,"firefly reporter light, replicate 2":2.91e5,"Renilla control light, replicate 1":7.84e5,"Renilla control light, replicate 2":8.22e5,"Outcome":"inactive"}
{"target":"spt4 (GeneID 36387)","DRSC id":"DRSC07696","firefly reporter light, replicate 1":8.97e5,"firefly reporter light, replicate 2":8.57e5,"Renilla control light, replicate 1":1.80e6,"Renilla control light, replicate 2":1.82e6,"Outcome":"inactive"}
{"target":"cDIP (GeneID 42512)","DRSC id":"DRSC14267","firefly reporter light, replicate 1":1.12e5,"firefly reporter light, replicate 2":62512,"Renilla control light, replicate 1":6.07e5,"Renilla control light, replicate 2":4.66e5,"Outcome":"inactive"}
{"target":"pnt (GeneID 42757)","DRSC id":"DRSC23204","firefly reporter light, replicate 1":4.22e5,"firefly reporter light, replicate 2":4.67e5,"Renilla control light, replicate 1":5.80e5,"Renilla control light, replicate 2":3.81e5,"Outcome":"inactive"}
{"target":"pnt (GeneID 42757)","DRSC id":"DRSC29116","firefly reporter light, replicate 1":4.31e5,"firefly reporter light, replicate 2":3.70e5,"Renilla control light, replicate 1":1.11e6,"Renilla control light, replicate 2":8.63e5,"Outcome":"inactive"}
{"target":"skl (GeneID 40016)","DRSC id":"DRSC10050","firefly reporter light, replicate 1":2.22e5,"firefly reporter light, replicate 2":2.35e5,"Renilla control light, replicate 1":1.74e6,"Renilla control light, replicate 2":2.37e6,"Outcome":"inactive"}
{"target":"CG9646 (GeneID 36918)","DRSC id":"DRSC07342","firefly reporter light, replicate 1":94449,"firefly reporter light, replicate 2":60183,"Renilla control light, replicate 1":1.50e6,"Renilla control light, replicate 2":1.50e6,"Outcome":"inactive"}
{"target":"Adgf-A2 (GeneID 64879)","DRSC id":"DRSC09507","firefly reporter light, replicate 1":2.50e5,"firefly reporter light, replicate 2":81520,"Renilla control light, replicate 1":3.32e5,"Renilla control light, replicate 2":1.69e5,"Outcome":"inactive"}
{"target":"crn (GeneID 31208)","DRSC id":"DRSC18184","firefly reporter light, replicate 1":3.00e5,"firefly reporter light, replicate 2":2.09e5,"Renilla control light, replicate 1":3.72e6,"Renilla control light, replicate 2":3.09e6,"Outcome":"inactive"}
{"target":"crn (GeneID 31208)","DRSC id":"DRSC18185","firefly reporter light, replicate 1":2.13e5,"firefly reporter light, replicate 2":1.88e5,"Renilla control light, replicate 1":3.12e6,"Renilla control light, replicate 2":2.54e6,"Outcome":"inactive"}
{"target":"crn (GeneID 31208)","DRSC id":"DRSC18755","firefly reporter light, replicate 1":1.21e5,"firefly reporter light, replicate 2":76961,"Renilla control light, replicate 1":8.88e5,"Renilla control light, replicate 2":5.48e5,"Outcome":"inactive"}

Entries listed so far whose target name starts with E or e:
{"target":"Edg78E (GeneID 40354)","DRSC id":"DRSC11863","firefly reporter light, replicate 1":2.60e5,"firefly reporter light, replicate 2":1.88e5,"Renilla control light, replicate 1":2.96e6,"Renilla control light, replicate 2":2.66e6,"Outcome":"inactive"}
{"target":"Edg78E (GeneID 40354)","DRSC id":"DRSC26712","firefly reporter light, replicate 1":2.24e5,"firefly reporter light, replicate 2":2.91e5,"Renilla control light, replicate 1":7.84e5,"Renilla control light, replicate 2":8.22e5,"Outcome":"inactive"}
